Reference: publication PMC10163288
The other results are listed elsewhere or left out.

B1: il10ra_site1_normal_mot_HHH_b1_01693_000000146_0001_1_17_H_._HHH_b1_03590_0001_0000400015_0000001_0_af2pred_0001 (protein)
chain: SSSSSDEEEEEVEELLREAEHIEDEEELARVLAEAAVLARRARNPELIELVLKVIIRLLRSSSSS
B2: il10ra_site1_normal_mot_HHH_b1_02397_af2_000000085_0001_39_57_H_._ems_p1-15H-GBL-16H-GABBL-16H_0062_0001_0001_0002_af2_0001_0000300018_0000001_0 (protein)
chain: SSSSSDVAELAQEALRLAFRLGDEEALQAVHEIVRKLAEGLMDPEEAQELLEELIEELRSSSSSS
B3: il10ra_site1_normal_mot_49468d6c54d8157f7969f91124172a68_0001_af2_000000173_0001_37_51_H_._HHH_b2_05549_0001_0000200010_0000002_0 (protein)
chain: SSSSSDAEEVAVELLELLREGNEEEAERVVEEAREELEEKGDPQAVNLLEVSFRLLQRAESSSSS
B4: il10ra_site1_sap_19_mot_8756ee2cf497b5429c717dfc0c0bcfd6_0001_000000186_0001_1_13_H_._HHH_b1_00330_0001_0000100004_0000001_0_0001 (protein)
chain: SSSSSSDNEELIEKLEEAVEEGDREAVIRLAQEAIRIVLRNNDAEALRELWRLIQEHASSSSSSS
B5: il10ra_site1_normal_mot_HHH_b1_06994_000000193_0001_40_55_H_._HHH_b2_00363_0001_0000200029_0000001_0 (protein)
chain: SSSSDLEELVRAALRLAKQALEAGDPRAARRLLEALAQALEQEGDEELLREVEELLEEVGSSSSS
B6: il10ra_site1_normal_mot_HHH_b1_05052_000000015_0001_1_19_H_._HHH_b1_05170_af2_0001_0000100002_0000002_1 (protein)
chain: SSSSSSDEAFRIIEEAIKLYADGNPEEAERLLEELLEQLREEGDEAMARIVEAILRLLSSSSSSS
B7: il10ra_site1_sap_17_mot_HHH_b1_00682_000000235_0001_1_20_H_._HHH_b2_02429_af2_0001_0000600019_0000002_0_0001_af2pred_0001 (protein)
chain: SSSSDEEVIELIRRISRALFRGDQEQAEELLEEAEELVKELGDEELRRALEIAEEAVRALSSSSS
B8: il10ra_site1_normal_mot_HHH_b1_02397_af2_000000085_0001_39_57_H_._HHH_b2_00311_0001_0000300020_0000002_0 (protein)
chain: SSSSSSDLEELLEELEQLLEEGDHERFAEVALRILRHAFRKNDPEVLRAVWELVKRLASSSSSSS
B9: il10ra_site1_sap_18_mot_HHH_b1_07768_000000240_0001_18_35_H_._HHH_b1_02264_0001_0000100004_0000001_0_0001 (protein)
chain: SSSSSERAIRFHLDMARQAFRLNNREALKAATYAARALVELHKDPELERLLEEIEELLEELSSSS
B10: il10ra_site1_normal_mot_HHH_b2_02337_000000026_0001_38_52_H_._HHH_b2_06191_0001_0000100004_0000002_0 (protein)
chain: SSSSSEEELEELVRELEELVERNDIERFIRLAQEAVQLAMELGDQEVLQRLWELVRLIIGSSSSS
B11: il10ra_site1_sap_13_mot_HHH_b2_06076_000000146_0001_21_37_H_._HHH_b2_03555_af2_0001_0000100003_0000001_0_0001 (protein)
chain: SSSSSERRERIWKLIKEVLELLANGNPEEAEKVLEEAEELAEEANDRLLLIQIEFLARAVKSSSS
B12: il10ra_site1_normal_mot_HHH_b2_02386_000000054_0001_1_20_H_._HHH_b2_05043_0001_0000400073_0000003_0 (protein)
chain: SSSSTDESYELLREAIEEVIRLYKEGNPEEAEKVVEEVARRLEELGNPLAARQLENLLRLLSSSS
B13: il10ra_site1_normal_mot_HHH_b2_07145_000000158_0001_24_40_H_._HHH_b1_07887_0001_0000300041_0000001_0 (protein)
chain: SSSSTEELFEKVKELIKEAQELFENGNPEEARELLRELREELEELGNQALLWSVEHLLRLLSSSS
B14: il10ra_site1_sap_24_mot_ems_p1-16H-GBL-16H-GABBL-16H_0429_0001_0001_0001_000000085_0001_1_17_H_._HHH_b2_03668_0001_0000200022_0000001_0_0001 (protein)
chain: SSSSSEEVEELLKELEEALEEGDEELFAELYAQVARLAQRLNDRELIEKIQKLAIEFLRRKSSSS
B15: il10ra_site1_normal_mot_HHH_b2_02386_000000054_0001_1_20_H_._HHH_b2_05043_0001_0000100001_0000003_0 (protein)
chain: SSSSTDESYELARRAIEEVIRLYKEGNPEEAEEVVREVFRELKELGNPLAARQLENLRRILSSSS
B16: il10ra_site1_sap_21_mot_HHH_b2_02736_000000092_0001_22_38_H_._HHH_b1_04523_af2_0001_0000300039_0000001_0_0001 (protein)
chain: SSSSSEEKEEELEELERLIEEGDRERFMKLVERALRLAYQNGDKELLQKIWELVKEFGERLSSSS
B17: il10ra_site1_sap_12_mot_HHH_b1_05757_000000171_0001_42_57_H_._ead7110553fcc56fee53bdb6698f5c61_0001_af2_0001_0000200005_0000002_0_0001 (protein)
chain: SSSSSDEELEEEIRELLRELEQITDPKEFIEVALRALELIYRLQDPELLHELWRIIKENSSSSSS
B18: il10ra_site1_normal_mot_513c16ae44941e68898e0f7c259e5a28_0001_1_000000056_0001_35_50_H_._ems_p1-15H-GBL-16H-GABBL-16H_0398_0001_0001_0002_0001_0000400018_000000 … (protein)
chain: SSSSSDVEELVELVEELAEERGDEQALQLAEAIEQLFRQGVLSEEAARIALEALAELLEGSSSSS

What follows are binders tested against il10ra, Q13651 (assay: yeast display titration).

| Binder | apparent Kd |
| --- | --- |
| B1 | inactive: no binding seen |
| B2 | inactive: no binding seen |
| B3 | inactive: no binding seen |
| B4 | inactive: no binding seen |
| B5 | inactive: no binding seen |
| B6 | inactive: no binding seen |
| B7 | inactive: no binding seen |
| B8 | inactive: no binding seen |
| B9 | inactive: no binding seen |
| B10 | inactive: no binding seen |
| B11 | inactive: no binding seen |
| B12 | inactive: no binding seen |
| B13 | inactive: > 106 nM |
| B14 | inactive: no binding seen |
| B15 | inactive: no binding seen |
| B16 | inactive: no binding seen |
| B17 | inactive: no binding seen |
| B18 | inactive: no binding seen |

Single entries from above:
Value of B11 under apparent Kd: inactive: no binding seen
Value of B18 under apparent Kd: inactive: no binding seen
